Test: Sensory evaluation of bitter taste masking effect
Assay type: in vivo
Settings: 0.1 ml of 0.5% (5000 ppm) solution in water on the tongue
Protocol: Since leucine has a unique bitter taste, Glc-Leu was examined by sensory evaluation for its bitter taste masking effect. Three test subjects A, B, C took 0.1 ml of a solution of food additive leucine dissolved in water at a concentration of 0.5% (5000 ppm) with a micropipette, dropped the solution on the tongue, and spit it out to confirm the level of the bitter taste of leucine. Sequentially, the three test subjects A, B, C took 0.1 ml of a solution of Glc-Leu dissolved in water at a concentration of 0.5% (5000 ppm) with a micropipette, dropped the solution on the tongue, and spit it out to compare the level of the bitter taste with that of leucine confirmed earlier.

SMILES: CC(C)C[C@H](NC(=O)OC1O[C@H](CO)[C@@H](O)[C@H](O)[C@H]1O)C(=O)O (stereo partly drawn) [Glc-Leu, N-(α/β-D-glucopyranosyloxycarbonyl)-L-leucine]
- bitter taste compared with leucine, all three test subjects: none of the test subjects felt the bitter taste

Reference: US10787476B2, “Glycoamino acid and use thereof” (AJINOMOTO CO., INC., priority 2013, dated 2020)
